Assay results published in the supplement of paper PMC10849652.
Some of the results follow.

Protein sequences, listed by entry. Tags and fused reporters are not part of them. Lines headed by an entry give the natural chain unless they say otherwise; changes in a name come on top.
UniProt Q8N129: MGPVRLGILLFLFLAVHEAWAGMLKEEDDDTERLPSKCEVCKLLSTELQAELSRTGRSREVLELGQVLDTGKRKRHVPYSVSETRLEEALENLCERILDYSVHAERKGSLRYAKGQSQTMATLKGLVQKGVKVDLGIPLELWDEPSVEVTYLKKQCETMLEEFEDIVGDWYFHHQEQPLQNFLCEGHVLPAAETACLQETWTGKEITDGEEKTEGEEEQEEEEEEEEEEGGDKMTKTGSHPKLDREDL
UniProt Q99715: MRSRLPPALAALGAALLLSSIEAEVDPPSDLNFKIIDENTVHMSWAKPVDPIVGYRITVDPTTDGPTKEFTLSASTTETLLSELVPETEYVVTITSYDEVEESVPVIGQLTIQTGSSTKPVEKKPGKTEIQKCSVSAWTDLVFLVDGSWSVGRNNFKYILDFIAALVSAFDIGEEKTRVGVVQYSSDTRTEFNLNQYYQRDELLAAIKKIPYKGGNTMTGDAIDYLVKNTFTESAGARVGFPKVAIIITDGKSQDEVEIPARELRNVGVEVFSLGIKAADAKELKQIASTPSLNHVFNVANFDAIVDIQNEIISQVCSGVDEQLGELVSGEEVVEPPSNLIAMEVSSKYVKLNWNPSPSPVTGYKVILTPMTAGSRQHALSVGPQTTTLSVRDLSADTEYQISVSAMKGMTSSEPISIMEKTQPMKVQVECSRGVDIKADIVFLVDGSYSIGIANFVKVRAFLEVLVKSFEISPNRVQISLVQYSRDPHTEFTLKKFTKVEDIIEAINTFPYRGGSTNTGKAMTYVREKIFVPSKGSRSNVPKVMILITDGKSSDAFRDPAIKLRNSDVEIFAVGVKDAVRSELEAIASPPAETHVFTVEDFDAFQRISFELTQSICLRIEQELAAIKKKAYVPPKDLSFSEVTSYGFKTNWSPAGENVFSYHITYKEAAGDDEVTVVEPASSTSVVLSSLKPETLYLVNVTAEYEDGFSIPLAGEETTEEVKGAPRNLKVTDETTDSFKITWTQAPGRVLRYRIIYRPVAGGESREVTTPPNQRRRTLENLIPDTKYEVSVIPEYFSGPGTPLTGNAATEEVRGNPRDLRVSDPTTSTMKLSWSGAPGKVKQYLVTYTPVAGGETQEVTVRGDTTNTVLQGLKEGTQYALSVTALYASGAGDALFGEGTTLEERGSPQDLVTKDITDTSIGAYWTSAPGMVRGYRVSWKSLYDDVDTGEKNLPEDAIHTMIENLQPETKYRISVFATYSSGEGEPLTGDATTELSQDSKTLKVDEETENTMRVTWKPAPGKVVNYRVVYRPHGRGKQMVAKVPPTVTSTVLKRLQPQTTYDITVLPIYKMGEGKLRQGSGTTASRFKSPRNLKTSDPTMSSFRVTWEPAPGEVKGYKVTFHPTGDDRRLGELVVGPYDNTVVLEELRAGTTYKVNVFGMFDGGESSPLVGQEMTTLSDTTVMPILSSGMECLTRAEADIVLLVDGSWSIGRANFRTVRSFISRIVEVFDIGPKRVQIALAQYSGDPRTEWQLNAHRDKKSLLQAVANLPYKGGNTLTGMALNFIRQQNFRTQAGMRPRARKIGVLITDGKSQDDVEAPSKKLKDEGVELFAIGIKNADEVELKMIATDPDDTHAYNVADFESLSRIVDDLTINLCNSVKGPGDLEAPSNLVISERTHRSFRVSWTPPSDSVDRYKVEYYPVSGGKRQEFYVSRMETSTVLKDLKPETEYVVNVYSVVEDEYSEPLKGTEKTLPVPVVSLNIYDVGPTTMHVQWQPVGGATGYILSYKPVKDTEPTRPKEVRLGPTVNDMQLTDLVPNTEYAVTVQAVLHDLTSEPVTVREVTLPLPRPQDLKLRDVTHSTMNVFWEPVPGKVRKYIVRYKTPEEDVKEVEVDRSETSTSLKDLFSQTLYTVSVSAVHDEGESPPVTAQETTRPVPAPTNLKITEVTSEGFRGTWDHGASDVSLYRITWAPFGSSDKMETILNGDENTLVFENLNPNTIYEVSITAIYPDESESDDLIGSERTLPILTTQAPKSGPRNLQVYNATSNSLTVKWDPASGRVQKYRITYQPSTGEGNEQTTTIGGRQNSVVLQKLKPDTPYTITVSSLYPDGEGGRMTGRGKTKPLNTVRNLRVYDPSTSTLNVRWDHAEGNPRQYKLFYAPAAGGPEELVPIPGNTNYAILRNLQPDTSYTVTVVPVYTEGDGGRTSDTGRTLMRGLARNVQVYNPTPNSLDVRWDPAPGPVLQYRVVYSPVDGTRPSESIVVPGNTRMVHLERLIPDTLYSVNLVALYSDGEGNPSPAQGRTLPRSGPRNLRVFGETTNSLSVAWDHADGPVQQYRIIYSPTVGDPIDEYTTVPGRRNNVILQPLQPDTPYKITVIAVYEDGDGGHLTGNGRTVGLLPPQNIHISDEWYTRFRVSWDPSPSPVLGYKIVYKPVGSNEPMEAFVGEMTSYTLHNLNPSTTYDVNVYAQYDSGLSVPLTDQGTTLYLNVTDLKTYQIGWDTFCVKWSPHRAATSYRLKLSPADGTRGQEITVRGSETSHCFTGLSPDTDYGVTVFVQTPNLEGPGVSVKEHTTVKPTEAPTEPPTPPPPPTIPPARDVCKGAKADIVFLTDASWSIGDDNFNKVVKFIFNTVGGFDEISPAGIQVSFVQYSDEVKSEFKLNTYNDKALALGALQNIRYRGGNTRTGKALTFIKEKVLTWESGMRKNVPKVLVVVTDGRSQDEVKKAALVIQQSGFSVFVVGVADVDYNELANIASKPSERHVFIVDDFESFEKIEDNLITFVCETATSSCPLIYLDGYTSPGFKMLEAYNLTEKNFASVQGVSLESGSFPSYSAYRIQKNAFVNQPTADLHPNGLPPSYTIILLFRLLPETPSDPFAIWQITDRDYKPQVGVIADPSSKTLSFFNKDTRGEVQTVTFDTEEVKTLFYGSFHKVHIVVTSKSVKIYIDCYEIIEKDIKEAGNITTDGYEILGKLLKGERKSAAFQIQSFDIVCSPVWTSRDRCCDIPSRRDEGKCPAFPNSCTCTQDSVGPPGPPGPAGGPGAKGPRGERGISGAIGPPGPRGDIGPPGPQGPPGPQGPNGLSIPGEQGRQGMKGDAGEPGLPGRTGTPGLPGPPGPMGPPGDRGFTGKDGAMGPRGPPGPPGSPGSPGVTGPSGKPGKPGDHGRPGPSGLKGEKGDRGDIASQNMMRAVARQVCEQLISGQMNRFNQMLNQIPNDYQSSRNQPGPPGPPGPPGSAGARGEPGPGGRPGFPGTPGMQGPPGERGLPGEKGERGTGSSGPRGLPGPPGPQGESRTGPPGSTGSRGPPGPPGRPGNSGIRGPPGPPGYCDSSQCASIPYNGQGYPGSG
UniProt Q96MX0: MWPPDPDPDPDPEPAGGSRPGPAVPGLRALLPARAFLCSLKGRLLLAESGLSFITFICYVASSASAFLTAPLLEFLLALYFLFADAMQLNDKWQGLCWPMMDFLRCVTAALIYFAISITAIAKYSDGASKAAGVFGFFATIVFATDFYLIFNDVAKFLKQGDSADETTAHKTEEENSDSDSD
UniProt Q96NY7: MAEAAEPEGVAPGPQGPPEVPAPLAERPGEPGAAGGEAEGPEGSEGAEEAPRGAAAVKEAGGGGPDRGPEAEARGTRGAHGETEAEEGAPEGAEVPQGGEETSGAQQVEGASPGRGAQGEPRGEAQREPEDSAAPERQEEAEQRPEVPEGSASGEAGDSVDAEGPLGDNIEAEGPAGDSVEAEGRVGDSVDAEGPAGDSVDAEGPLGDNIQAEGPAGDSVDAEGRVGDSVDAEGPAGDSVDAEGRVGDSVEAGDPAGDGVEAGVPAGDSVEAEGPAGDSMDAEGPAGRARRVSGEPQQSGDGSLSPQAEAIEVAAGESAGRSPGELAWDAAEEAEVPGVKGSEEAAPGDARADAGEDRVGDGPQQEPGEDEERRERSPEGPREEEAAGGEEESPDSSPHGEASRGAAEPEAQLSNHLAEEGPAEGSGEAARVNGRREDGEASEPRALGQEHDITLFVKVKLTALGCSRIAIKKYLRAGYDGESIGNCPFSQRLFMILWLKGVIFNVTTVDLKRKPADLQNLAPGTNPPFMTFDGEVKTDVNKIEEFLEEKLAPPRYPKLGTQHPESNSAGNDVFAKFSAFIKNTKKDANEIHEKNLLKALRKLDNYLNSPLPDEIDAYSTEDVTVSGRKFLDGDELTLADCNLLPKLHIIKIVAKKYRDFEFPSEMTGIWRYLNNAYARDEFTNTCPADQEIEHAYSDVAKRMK
UniProt Q96JB2: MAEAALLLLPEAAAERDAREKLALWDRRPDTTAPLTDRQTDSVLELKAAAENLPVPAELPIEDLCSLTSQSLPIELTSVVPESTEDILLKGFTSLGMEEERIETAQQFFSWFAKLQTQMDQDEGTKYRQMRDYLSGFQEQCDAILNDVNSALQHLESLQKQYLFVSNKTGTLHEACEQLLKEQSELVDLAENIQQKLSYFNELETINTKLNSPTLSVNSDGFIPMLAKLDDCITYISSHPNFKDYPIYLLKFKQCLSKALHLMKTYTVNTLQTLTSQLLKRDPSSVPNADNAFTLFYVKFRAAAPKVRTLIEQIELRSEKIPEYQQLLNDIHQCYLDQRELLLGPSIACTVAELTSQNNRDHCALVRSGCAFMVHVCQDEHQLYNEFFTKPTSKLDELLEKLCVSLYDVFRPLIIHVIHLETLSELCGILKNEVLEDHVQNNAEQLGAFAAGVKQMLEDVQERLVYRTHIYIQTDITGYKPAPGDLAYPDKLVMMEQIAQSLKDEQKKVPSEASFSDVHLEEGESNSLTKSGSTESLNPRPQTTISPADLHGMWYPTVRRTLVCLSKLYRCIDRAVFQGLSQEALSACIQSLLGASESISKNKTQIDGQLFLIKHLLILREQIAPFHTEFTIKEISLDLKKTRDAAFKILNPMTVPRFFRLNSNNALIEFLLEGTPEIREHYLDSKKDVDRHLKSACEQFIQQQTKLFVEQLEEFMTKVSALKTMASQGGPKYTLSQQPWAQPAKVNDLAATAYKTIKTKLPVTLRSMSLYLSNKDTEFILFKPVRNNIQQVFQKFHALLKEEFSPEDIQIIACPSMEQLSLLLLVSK
UniProt Q96MW5: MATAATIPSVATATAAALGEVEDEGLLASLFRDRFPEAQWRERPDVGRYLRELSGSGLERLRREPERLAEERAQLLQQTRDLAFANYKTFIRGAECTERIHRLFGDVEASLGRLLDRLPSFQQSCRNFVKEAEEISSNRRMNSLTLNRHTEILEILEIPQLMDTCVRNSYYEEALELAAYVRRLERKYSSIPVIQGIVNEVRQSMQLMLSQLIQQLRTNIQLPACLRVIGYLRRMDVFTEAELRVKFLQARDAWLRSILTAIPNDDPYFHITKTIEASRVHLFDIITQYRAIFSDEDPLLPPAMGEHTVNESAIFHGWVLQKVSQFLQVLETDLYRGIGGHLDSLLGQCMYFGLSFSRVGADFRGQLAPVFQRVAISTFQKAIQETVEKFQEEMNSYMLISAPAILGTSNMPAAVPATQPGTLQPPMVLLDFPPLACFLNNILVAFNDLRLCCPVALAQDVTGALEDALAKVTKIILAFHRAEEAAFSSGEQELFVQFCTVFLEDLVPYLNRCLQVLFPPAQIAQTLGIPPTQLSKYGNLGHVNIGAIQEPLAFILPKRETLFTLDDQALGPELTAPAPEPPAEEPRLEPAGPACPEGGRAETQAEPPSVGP
UniProt Q9BQT9: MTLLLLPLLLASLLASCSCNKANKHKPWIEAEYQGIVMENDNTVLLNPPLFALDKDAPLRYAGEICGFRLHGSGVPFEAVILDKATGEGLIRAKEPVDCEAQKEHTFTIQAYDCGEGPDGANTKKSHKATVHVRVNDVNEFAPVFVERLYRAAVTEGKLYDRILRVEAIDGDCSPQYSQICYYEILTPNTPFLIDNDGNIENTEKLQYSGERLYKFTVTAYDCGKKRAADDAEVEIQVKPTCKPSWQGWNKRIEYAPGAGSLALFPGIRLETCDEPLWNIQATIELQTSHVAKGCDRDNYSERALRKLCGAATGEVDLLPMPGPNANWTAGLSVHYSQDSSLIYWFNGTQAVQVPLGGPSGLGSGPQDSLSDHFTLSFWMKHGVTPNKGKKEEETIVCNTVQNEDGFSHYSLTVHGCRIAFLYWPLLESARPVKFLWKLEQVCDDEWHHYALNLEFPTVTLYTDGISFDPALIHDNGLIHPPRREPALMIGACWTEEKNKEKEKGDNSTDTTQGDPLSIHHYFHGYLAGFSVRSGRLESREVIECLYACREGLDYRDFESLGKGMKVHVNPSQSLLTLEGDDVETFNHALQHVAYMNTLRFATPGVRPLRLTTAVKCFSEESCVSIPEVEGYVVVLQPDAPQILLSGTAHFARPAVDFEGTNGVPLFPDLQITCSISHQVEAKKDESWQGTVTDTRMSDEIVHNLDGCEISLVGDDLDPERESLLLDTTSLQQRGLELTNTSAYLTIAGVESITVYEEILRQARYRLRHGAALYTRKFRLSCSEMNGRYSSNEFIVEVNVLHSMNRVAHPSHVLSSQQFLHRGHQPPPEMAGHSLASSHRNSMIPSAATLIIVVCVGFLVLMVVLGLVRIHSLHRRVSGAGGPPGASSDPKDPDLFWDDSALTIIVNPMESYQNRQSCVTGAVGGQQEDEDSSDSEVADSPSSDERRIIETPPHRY

Tests used:
Assay in all cases: log2 fold change, soluble protein after heating vs DMSO (PISA); higher = thermal stabilisation; K562 cells, 10 uM, 30 min; active = over 0.2 and 3.5 SD of the protein, either way, in both replicates (recomputed)
[1] = compound: CS(=O)(=O)c1ccc(-c2cnc(N)c(C(=O)Nc3ccccc3)n2)cc1
Method in brief: (§1)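 Quantification of soluble protein used TMTpro 16plex LC-MS/MS, with channel sums equalised. Samples were the supernatant after 21,000xg for 90 min of pooled aliquots from K562 cells (2×10^6 cells/mL) treated with 10 μM compound for 30 min, heated for 3 min over 48°C-58°C, and extracted in PBS with 0.5% NP-40 at 4°C. Values, from duplicates, describe thermal stability against control samples on a log2 fold-change scale.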

[2] = compound: C[C@@H]1COCCN1C2=NC(=NC(=C2)C3(CC3)S(=O)(=O)C)C4=C5C=CNC5=CC=C4
Method in brief: as §1

duvelisib = compound: C[C@H](Nc1ncnc2nc[nH]c12)c1cc2cccc(Cl)c2c(=O)n1-c1ccccc1 [duvelisib]
Method in brief: as §1

tozasertib = compound: Cc1cc(Nc2cc(N3CCN(C)CC3)nc(Sc3ccc(NC(=O)C4CC4)cc3)n2)n[nH]1 [tozasertib]
Method in brief: as §1

[3] = compound: Cc1cc(SCc2sc(-c3ccc(C(F)(F)F)cc3)nc2C)ccc1OCC(=O)O
Method in brief: as §1

ispinesib = compound: Cc1ccc(C(=O)N(CCCN)[C@@H](c2nc3cc(Cl)ccc3c(=O)n2Cc2ccccc2)C(C)C)cc1 [ispinesib]
Method in brief: as §1

bafetinib = compound: Cc1ccc(NC(=O)c2ccc(CN3CC[C@H](N(C)C)C3)c(C(F)(F)F)c2)cc1Nc1nccc(-c2cncnc2)n1 [bafetinib]
Method in brief: as §1

nilotinib = compound: Cc1cn(-c2cc(NC(=O)c3ccc(C)c(Nc4nccc(-c5cccnc5)n4)c3)cc(C(F)(F)F)c2)cn1 [nilotinib]
Method in brief: as §1

[4] = compound: Cc1nc(Nc2n[nH]c3c2CN(C(=O)N[C@H](CN(C)C)c2ccccc2)C3(C)C)c2sccc2n1
Method in brief: as §1

dasatinib = compound: Cc1nc(Nc2ncc(C(=O)Nc3c(C)cccc3Cl)s2)cc(N2CCN(CCO)CC2)n1 [dasatinib]
Method in brief: as §1

[5] = compound: Cc1ncc(-c2ccnc(Nc3ccc(S(C)(=O)=O)cc3)n2)n1C(C)C
Method in brief: as §1

[6] = compound: Cn1cc(-c2ccc3nnc(C(F)(F)c4ccc5ncccc5c4)n3n2)cn1
Method in brief: as §1

tipifarnib = compound: Cn1cncc1[C@@](N)(c1ccc(Cl)cc1)c1ccc2c(c1)c(-c1cccc(Cl)c1)cc(=O)n2C [tipifarnib]
Method in brief: as §1

crizotinib = compound: C[C@@H](Oc1cc(-c2cnn(C3CCNCC3)c2)cnc1N)c1c(Cl)ccc(F)c1Cl [crizotinib]
Method in brief: as §1

gandotinib = compound: Cc1cc(Nc2cc(CN3CCOCC3)c3nc(C)c(Cc4ccc(Cl)cc4F)n3n2)n[nH]1 [gandotinib]
Method in brief: as §1

doramapimod = compound: Cc1ccc(-n2nc(C(C)(C)C)cc2NC(=O)Nc2ccc(OCCN3CCOCC3)c3ccccc23)cc1 [doramapimod]
Method in brief: as §1

[7] = compound: Cc1cccc(CC(=O)N2CCc3c2ccc(-c2cn(C)c4ncnc(N)c24)c3F)n1
Method in brief: as §1

mubritinib = compound: FC(F)(F)c1ccc(/C=C/c2nc(COc3ccc(CCCCn4ccnn4)cc3)co2)cc1 [mubritinib]
Method in brief: as §1

[8] = compound: C[C@H](C1=CC=C(C=C1)C(=O)NC2=C3C=CNC3=NC=C2)N
Method in brief: as §1

[9] = compound: Cn1cc(-c2ccc3c(c2)CCN3C(=O)Cc2cccc(C(F)(F)F)c2)c2c(N)ncnc21
Method in brief: as §1

Measured: log2 fold change

COIL (UniProt P38432)
inactive: [1] -0.287 | [2] 0.338 | duvelisib 0.037 | tozasertib -0.059 | [3] 0.039 | ispinesib -0.136 | bafetinib 0.378 | nilotinib -0.127 | [4] -0.165 | dasatinib -0.019 | [5] -0.124 | [6] 0.169 | tipifarnib 0.134

COL14A1 (UniProt Q05707)
inactive: [1] -0.195 | crizotinib 0.084 | [2] -0.198 | duvelisib -0.105 | gandotinib 0.156 | tozasertib 0.025 | [3] -0.013 | doramapimod -0.205 | [7] -0.035 | nilotinib 0.021 | [4] -0.033 | dasatinib 0.099 | [5] 0.047 | tipifarnib 0.102 | mubritinib -0.137

CLDN12 (UniProt P56749)
inactive: [1] 0.174 | [2] 0.271 | bafetinib 0.248 | mubritinib -0.074

CNPY4 (UniProt Q8N129)
inactive: [1] 0.122 | [8] -0.082 | duvelisib 0.028 | gandotinib 0.016 | tozasertib -0.11 | [3] 0.011 | ispinesib -0.042 | bafetinib -0.01 | [7] -0.027 | nilotinib -0.018 | [4] 0.029 | dasatinib 0.117 | [5] -0.021 | [9] 0.075 | [6] 0.07 | tipifarnib 0.04 | mubritinib 0.017

COG2 (UniProt Q14746)
inactive: [1] -0.029 | crizotinib -0.17 | [2] 0.094 | [8] 0.483 | [3] 0.061 | doramapimod 0 | ispinesib -0.264 | nilotinib -0.169 | [4] -0.006 | dasatinib -0.051 | [5] 0.133 | [9] -0.074 | [6] 0.245 | mubritinib -0.035

COL12A1 (UniProt Q99715)
inactive: [1] -0.279 | [2] 0.076 | tozasertib -0.085 | ispinesib -0.013 | [6] -0.035 | tipifarnib 0.044

CHST11 (UniProt Q9NPF2)
inactive: [1] 0.056 | crizotinib -0.106 | [2] -0.037 | [8] 0.019 | gandotinib 0.029 | doramapimod 0.087 | ispinesib -0.068 | bafetinib -0.01 | [7] -0.117 | nilotinib 0.049 | [4] -0.026 | [5] 0.008 | [9] 0.039 | [6] -0.249 | tipifarnib -0.012 | mubritinib -0.064

CMTM3 (UniProt Q96MX0)
inactive: [1] 0.063 | crizotinib -0.007 | [2] -0.002 | [8] -0.133 | gandotinib 0.132 | [3] -0.102 | doramapimod -0.065 | bafetinib 0.05 | [7] -0.078 | nilotinib -0.056 | [4] -0.007 | dasatinib 0.017 | [5] 0.013 | [9] 0.05 | tipifarnib 0.098 | mubritinib -0.052

CIP2A (UniProt Q8TCG1)
inactive: [1] 0.325 | [2] -0.132 | duvelisib 0.498 | gandotinib 0.41 | [3] -0.377 | [7] -0.399 | dasatinib 0.355 | mubritinib -0.278

CLIC6 (UniProt Q96NY7)
inactive: [1] -0.055 | crizotinib 0.061 | [2] 0.278 | duvelisib 0.059 | tozasertib -0.082 | [3] 0.032 | doramapimod -0.128 | ispinesib -0.011 | bafetinib 0.005 | nilotinib 0.08 | [4] -0.165 | dasatinib 0.163 | [5] 0.04 | [6] 0.023 | mubritinib 0.025

CNBP isoform 4 (UniProt P62633)
inactive: bafetinib -0.015 | nilotinib 0.146 | [4] 0.132 | [5] -0.066 | mubritinib 0.045

COG3 (UniProt Q96JB2)
inactive: crizotinib -0.061 | [2] -0.105 | [8] 0.363 | duvelisib -0.097 | [3] 0.261 | doramapimod 0.004 | ispinesib -0.019 | bafetinib 0.21 | dasatinib 0.07 | [9] -0.192 | [6] -0.042 | mubritinib -0.065

Copied from the results shown (7 entries):
CLDN12 (UniProt P56749)
inactive: [1] 0.174 | [2] 0.271 | bafetinib 0.248 | mubritinib -0.074

CNPY4 (UniProt Q8N129)
inactive: [1] 0.122 | [8] -0.082 | duvelisib 0.028 | gandotinib 0.016 | tozasertib -0.11 | [3] 0.011 | ispinesib -0.042 | bafetinib -0.01 | [7] -0.027 | nilotinib -0.018 | [4] 0.029 | dasatinib 0.117 | [5] -0.021 | [9] 0.075 | [6] 0.07 | tipifarnib 0.04 | mubritinib 0.017

COG2 (UniProt Q14746)
inactive: [1] -0.029 | crizotinib -0.17 | [2] 0.094 | [8] 0.483 | [3] 0.061 | doramapimod 0 | ispinesib -0.264 | nilotinib -0.169 | [4] -0.006 | dasatinib -0.051 | [5] 0.133 | [9] -0.074 | [6] 0.245 | mubritinib -0.035

COL12A1 (UniProt Q99715)
inactive: [1] -0.279 | [2] 0.076 | tozasertib -0.085 | ispinesib -0.013 | [6] -0.035 | tipifarnib 0.044

CHST11 (UniProt Q9NPF2)
inactive: [1] 0.056 | crizotinib -0.106 | [2] -0.037 | [8] 0.019 | gandotinib 0.029 | doramapimod 0.087 | ispinesib -0.068 | bafetinib -0.01 | [7] -0.117 | nilotinib 0.049 | [4] -0.026 | [5] 0.008 | [9] 0.039 | [6] -0.249 | tipifarnib -0.012 | mubritinib -0.064

CMTM3 (UniProt Q96MX0)
inactive: [1] 0.063 | crizotinib -0.007 | [2] -0.002 | [8] -0.133 | gandotinib 0.132 | [3] -0.102 | doramapimod -0.065 | bafetinib 0.05 | [7] -0.078 | nilotinib -0.056 | [4] -0.007 | dasatinib 0.017 | [5] 0.013 | [9] 0.05 | tipifarnib 0.098 | mubritinib -0.052

CIP2A (UniProt Q8TCG1)
inactive: [1] 0.325 | [2] -0.132 | duvelisib 0.498 | gandotinib 0.41 | [3] -0.377 | [7] -0.399 | dasatinib 0.355 | mubritinib -0.278

(next part)

CNEP1R1 isoform 2 (UniProt Q8N9A8)
inactive: [8] -0.001 | tozasertib -0.26 | [9] 0.452

CIRBP (UniProt Q14011)
inactive: [2] -0.076 | [8] 0.238 | duvelisib -0.072 | gandotinib 0.266 | tozasertib -0.039 | [3] 0.129 | bafetinib 0.155 | [7] -0.054 | nilotinib -0.004 | [4] 0.103 | dasatinib -0.063 | [5] -0.004 | [9] 0 | tipifarnib 0.067 | mubritinib -0.034

COG7 (UniProt P83436)
inactive: [2] -0.16 | [8] 0.205 | duvelisib -0.2 | [3] 0.164 | ispinesib -0.15 | dasatinib 0.115 | [9] -0.539 | [6] -0.084 | tipifarnib 0.133 | mubritinib -0.31

COG8 (UniProt Q96MW5)
inactive: crizotinib -0.099 | [2] -0.031 | [8] 0.487 | doramapimod 0.102 | [9] -0.259 | mubritinib -0.109

CHST14 (UniProt Q8NCH0)
inactive: crizotinib -0.122 | [2] 0.002 | [8] 0.006 | duvelisib -0.06 | gandotinib -0.049 | tozasertib -0.112 | [3] -0.059 | doramapimod 0.06 | ispinesib -0.118 | bafetinib -0.224 | [7] 0.011 | nilotinib -0.063 | [4] -0.014 | dasatinib 0.038 | [5] 0.019 | [9] -0.127 | [6] -0.012 | tipifarnib 0.082 | mubritinib 0.052

COG5 isoform 2 (UniProt Q9UP83)
inactive: crizotinib 0.036 | doramapimod 0.303 | ispinesib -0.293 | [6] -0.078

CLINT1 (UniProt Q14677)
inactive: crizotinib 0.166 | [8] 0.005 | [3] -0.155 | doramapimod 0.154 | bafetinib -0.053 | nilotinib 0.065 | [4] -0.048 | dasatinib 0.142 | [5] -0.151 | [9] 0.047 | mubritinib -0.007

CLYBL (UniProt Q8N0X4)
inactive: gandotinib -0.05 | [7] -0.153 | tipifarnib -0.421

CLEC2B (UniProt Q92478)
inactive: tipifarnib 0.299

CLSTN3 isoform 2 (UniProt Q9BQT9)
inactive: [2] 0.024 | gandotinib -0.16 | [7] -0.025 | tipifarnib 0.147

CLEC11A (UniProt Q9Y240)
inactive: duvelisib -0.004 | gandotinib -0.008 | tozasertib 0.154 | [3] 0.135 | [7] 0.009 | dasatinib -0.162 | tipifarnib 0.014
